# Most values lie at the floor of the assay. Slopes are relative: functional sequences can read slightly below zero.
# Tested on: Saccharomyces cerevisiae PS128 hsf1 delta, HSF1(1-493) fusion
# Test: growth estimate (transactivation domain function in HSF1 fusion, heat-shock survival) (a.u. (slope of normalised read count over time)); higher = stronger growth at 37°C, i.e. more transactivation activity
# Details: library: random library
row,Substance,growth estimate
1,SVHWLARTLDLAEDKKSTGP,< -0.25
2,GSAVPFLYAHSDKTGKRGVT,< -0.25
3,GTCDEANHGGRGRPSRGLAV,< -0.25
4,QGRTARGRRGTKE,-0.25
5,AGNGPIC,< -0.25
6,YFRLKVGWIDVER,< -0.25
7,IRLGGDGRSSEYGHRKTARS,< -0.25
8,SGGILMDRRAATCLQPPLIH,< -0.25
9,GSRRTGTEAVG,< -0.25
10,ARRKGAGIIVTGSGRRRTNM,< -0.25
11,VQLETNYY,< -0.25
12,DPPPIGSVM,< -0.25
13,DGGSNFAFSMYVSAMLSSSS,< -0.25
14,SDQVVRVRTVELVRVHMIRS,< -0.25
15,LGPGNCPLSRWDLDRYGGVA,< -0.25
16,RVQDEGPVIRSASADSASRG,< -0.25
17,FYLCRLCPCECTLTLVILTW,-0.25
18,GDVSLGVLIRTSP,< -0.25
19,NLLGCILGQRDGN,< -0.25
20,RIKDGKVRACAGVDTHV,< -0.25
21,IATDVYGSISRGALVPNWCS,< -0.25
22,LTAP,< -0.25
23,SRQVQRREPPLASDQTIAGY,< -0.25
24,YRGDMKEPQWPDSRVERTRT,< -0.25
25,KCGLGVLPP,< -0.25

row,Substance,growth estimate
1,REKDNRFLWITYGRGGSDEN,0.139
2,RRAFRKRLSTNIRSTRYTRP,< -0.25
3,LILLYSETR,< -0.25
4,WFSRGQDNELG,< -0.25
5,PSLYDVHYT,< -0.25
6,DVSLFSALRECDCWMLSPRS,< -0.25
7,ECGLVASPERVLAGCSNHV,< -0.25
8,VYPVTKAGFGLIS,< -0.25
9,TGRGLTKH,< -0.25
10,GYRRFGGSYMHRRECQHGLL,< -0.25
11,TAGLNRWGVKILVRFRQE,< -0.25
12,MFSHIAWSERAVSRDSRPRL,< -0.25
13,WPP,< -0.25
14,LGYYEL,-0.193
15,LRENPLAVSRRIEKTTALMA,< -0.25
16,REVLNHKQLLPMNLAPGGSN,< -0.25
17,RIFN,-0.228
18,ERRIGIRASSWTLGEYNYGS,< -0.25
19,IHGW,< -0.25
20,VPGVSLANRSDLHDSLSCIP,< -0.25
21,ALLPGAIILVPDTVKLLCLC,< -0.25
22,IRMFR,< -0.25
23,RSEIERFAFECVGL,< -0.25
24,THGVSTGSSEALFGFGYPGY,< -0.25
25,LRLHFILRRDRNEYVMCVSR,< -0.25

row,Substance,growth estimate
1,FPGLNLGHLIQSPLGVGN,< -0.25
2,PPATQREVLWVCTPYVYHHD,< -0.25
3,RPYQRMGLTTQGQVGLCLTS,< -0.25
4,LKSRQWGRVMGS,-0.217
5,PPESEFCQRRVSRGGNCVLT,-0.0016
6,PEMFCTVCCTLDRYNARKIT,< -0.25
7,LYSYSGDGTLMLSLVGINIS,< -0.25
8,PGTNPSRQWGVMDFCNDTSY,< -0.25
9,DLNVTRES,< -0.25
10,TRSVWQKVRTTTSVVAIGNP,< -0.25
11,PLLRRYLVS,< -0.25
12,RRTCRLRIEPGGFRPSCSGG,< -0.25
13,YLSVHVVPF,< -0.25
14,PIMILDKPVRGLVETVTF,< -0.25
15,VWFADAQSGRRGLIDGVQPV,< -0.25
16,RHSLPCDLPIGHDGKSYTMI,< -0.25
17,NDQSEGSAATCLYDLRSFGT,< -0.25
18,GWWSFQTVFRG,< -0.25
19,YVTPHMREMFSNNHTKWTVQ,< -0.25
20,ITESIAAYVDRAWSQLCAPP,< -0.25
21,DRTPMTNIRQSNWAFIEGTF,< -0.25
22,TYLTQRCMSGQVGYA,< -0.25
23,GAGTMRLQRCLGTFVKGLSR,< -0.25
24,FRIRS,< -0.25
25,LPGP,< -0.25

row,Substance,growth estimate
1,QAHFLGRYDLMG,< -0.25
2,AIETLQVYTTALCELKPQTI,< -0.25
3,TRGPEFFCSDDPVGP,< -0.25
4,STRAARLAVNWITEATLPQV,< -0.25
5,KSCRFAVLVPGIWPKRSCMG,< -0.25
6,LRLKMPPGSVRMSLREGP,< -0.25
7,SQSSGAKTAVALLARDMESR,< -0.25
8,QDLMFTDFEESKCGVRGTLK,< -0.25
9,ISW,< -0.25
10,RKS,< -0.25
11,GRSAAHLTPAQRAG,< -0.25
12,TGFMTRGAQLLLRKFVGFEK,< -0.25
13,FKMIFRTVEGGDDSVRHQVA,< -0.25
14,VTTAEAACNE,< -0.25
15,LEVNLGGLCAST,< -0.25
16,LLPSAGTKPLAHSTPRRCQC,< -0.25
17,RPGGEHRMLQRTWETVSLRL,< -0.25
18,IKESKFTLS,< -0.25
19,RVGSRHRPL,< -0.25
20,PSY,0.263
21,AIARDRSSLRALLVNEEPRP,< -0.25
22,RKVQQRCSSSKAGTV,< -0.25
23,SGPTADTISGGGSGEGTKGL,< -0.25
24,IGLFQASHSSPSGSRSLYGP,< -0.25
25,RHKF,< -0.25

row,Substance,growth estimate
1,SVTPVRRFEWLQCDLKLGPS,< -0.25
2,RLRAMFRFSLPGSREP,< -0.25
3,YRAVYWNKKRTGPLGGGSHG,< -0.25
4,PWSVRRLAPVTTHGFLGIVS,< -0.25
5,RSIEPD,< -0.25
6,PLNEKFIATRDWASVA,< -0.25
7,VLIPSRVIEQNNGDVGSMAR,< -0.25
8,HYADNHILASFSSSDTVVRH,< -0.25
9,WKVLPVRSPVSASFWHGWRL,< -0.25
10,SLYLIGADRAVSIGWRG,< -0.25
11,RPTQQCLRLGMSGIQGHPRC,< -0.25
12,RTPSKRHRFGSCQTGQRLID,< -0.25
13,LNSRCRVSCGFDAFVLAIAS,< -0.25
14,QYRWTFPTRLGNAQLTP,< -0.25
15,KMPIDQRSNVMMEHSRETKS,< -0.25
16,HTAYNPYRALAGTSWLKQPK,< -0.25
17,RISRCC,< -0.25
18,HGRLKDSRGYAGVSRFDLE,< -0.25
19,NTRSCLTGGSGENCGNSPSA,< -0.25
20,KTSIRLLFRRRVDRLSGLLG,< -0.25
21,PLTQFSCLNPPSRFRLGGVS,< -0.25
22,LRLCVFRFVVVTKTNDTVLP,-0.246
23,SVLSESIQSDLASARSRNDL,< -0.25
24,YALILPVGCCCYRRHCHLQR,< -0.25
25,TLRGSPGPNSHSV,< -0.25

row,Substance,growth estimate
1,EQEKWQRVIVL,-0.245
2,PWPVPPSKRDDVRGPRGPRD,< -0.25
3,AIIGEHLWVYEIRTFL,< -0.25
4,PSRA,< -0.25
5,RDNRTLDLIYILPLSPVSCL,< -0.25
6,FLLRFANEP,< -0.25
7,MGVMSDIRYETRPSIYRYRA,< -0.25
8,RFGFVSAGTLVR,< -0.25
9,ACHRIHVHSLTQGAQYFGQL,< -0.25
10,CENHDT,< -0.25
11,QFSGDCLRHRTEALDVLRSR,< -0.25
12,ILLLTGRGVR,< -0.25
13,SPSAEVAPSMILTLASLSHG,< -0.25
14,IFTAVGVSI,< -0.25
15,ISGGGS,< -0.25
16,SDGRTQRRPDNSSLGLHE,< -0.25
17,TYWQLMCCSSALMPVVNHCH,0.0328
18,IHFLIRCGGPLFS,< -0.25
19,RAMMPKVYCARHGQASGTPY,< -0.25
20,RQPRRPM,< -0.25
21,SRVGEC,< -0.25
22,WSNGLPIAVTLTAGKGRLLL,< -0.25
23,RSRHWAGMHRLSVTRALDSN,< -0.25
24,QSI,< -0.25
25,TGT,< -0.25

row,Substance,growth estimate
1,AGG,< -0.25
2,NIEIGGGFLQGGGFVNARRN,< -0.25
3,LGESFLGALQLTC,< -0.25
4,ASVEECALRGGAFLAETGRV,-0.23
5,LFFCQ,< -0.25
6,EKMASICCRG,< -0.25
7,PVIP,-0.21
8,GYRQIHTLVHALIRVRCERP,< -0.25
9,PIGALRDQHGPEVLPLSFIS,< -0.25
10,GGVAG,0.0119
11,NAIRCT,< -0.25
12,TCLKHLPT,< -0.25
13,IHSPL,< -0.25
14,LPSLKYASSDHIAWTPRI,< -0.25
15,HCSRRRVGFRRCPQNRHKSP,< -0.25
16,FPPLNIYISCRFLA,< -0.25
17,LRGEGGHLR,< -0.25
18,RSSLMWLNGINHSVRRPIWS,< -0.25
19,LSAGAPVWRYKMSCGECWPV,< -0.25
20,LRLDQL,< -0.25
21,GSCSLACCTLEMQGRSIIMN,< -0.25
22,RHWHLLVQRFPGPHACSSTT,< -0.25
23,EMLSLEPIELHFVQA,< -0.25
24,CTRCF,< -0.25
25,LEMGCPWV,< -0.25

# As a working copy, part of the list above.
row,Substance,growth estimate
15,KMPIDQRSNVMMEHSRETKS,< -0.25
16,HTAYNPYRALAGTSWLKQPK,< -0.25
17,RISRCC,< -0.25
18,HGRLKDSRGYAGVSRFDLE,< -0.25
19,NTRSCLTGGSGENCGNSPSA,< -0.25
20,KTSIRLLFRRRVDRLSGLLG,< -0.25
21,PLTQFSCLNPPSRFRLGGVS,< -0.25
22,LRLCVFRFVVVTKTNDTVLP,-0.246
23,SVLSESIQSDLASARSRNDL,< -0.25
24,YALILPVGCCCYRRHCHLQR,< -0.25
25,TLRGSPGPNSHSV,< -0.25
1,EQEKWQRVIVL,-0.245
2,PWPVPPSKRDDVRGPRGPRD,< -0.25
3,AIIGEHLWVYEIRTFL,< -0.25
4,PSRA,< -0.25
5,RDNRTLDLIYILPLSPVSCL,< -0.25
6,FLLRFANEP,< -0.25
7,MGVMSDIRYETRPSIYRYRA,< -0.25
8,RFGFVSAGTLVR,< -0.25
9,ACHRIHVHSLTQGAQYFGQL,< -0.25
10,CENHDT,< -0.25
11,QFSGDCLRHRTEALDVLRSR,< -0.25
12,ILLLTGRGVR,< -0.25
13,SPSAEVAPSMILTLASLSHG,< -0.25
14,IFTAVGVSI,< -0.25
15,ISGGGS,< -0.25
16,SDGRTQRRPDNSSLGLHE,< -0.25
17,TYWQLMCCSSALMPVVNHCH,0.0328
18,IHFLIRCGGPLFS,< -0.25
19,RAMMPKVYCARHGQASGTPY,< -0.25
20,RQPRRPM,< -0.25
21,SRVGEC,< -0.25
22,WSNGLPIAVTLTAGKGRLLL,< -0.25
23,RSRHWAGMHRLSVTRALDSN,< -0.25
24,QSI,< -0.25
25,TGT,< -0.25
1,AGG,< -0.25
2,NIEIGGGFLQGGGFVNARRN,< -0.25
3,LGESFLGALQLTC,< -0.25
4,ASVEECALRGGAFLAETGRV,-0.23
5,LFFCQ,< -0.25
6,EKMASICCRG,< -0.25
7,PVIP,-0.21
8,GYRQIHTLVHALIRVRCERP,< -0.25
9,PIGALRDQHGPEVLPLSFIS,< -0.25
10,GGVAG,0.0119
11,NAIRCT,< -0.25
12,TCLKHLPT,< -0.25
13,IHSPL,< -0.25
14,LPSLKYASSDHIAWTPRI,< -0.25
15,HCSRRRVGFRRCPQNRHKSP,< -0.25
16,FPPLNIYISCRFLA,< -0.25
17,LRGEGGHLR,< -0.25
18,RSSLMWLNGINHSVRRPIWS,< -0.25
19,LSAGAPVWRYKMSCGECWPV,< -0.25
20,LRLDQL,< -0.25
21,GSCSLACCTLEMQGRSIIMN,< -0.25
22,RHWHLLVQRFPGPHACSSTT,< -0.25

# Remaining list, next part.

row,Substance,growth estimate
1,ADRSPRASPLCPQQVDPKMA,< -0.25
2,SLSIKPCCYELAALDDQT,< -0.25
3,YHRRPVSEPCQVGVT,< -0.25
4,RDVGCGCGQSS,-0.245
5,GEQALLHNQQHEIRLCVYFA,< -0.25
6,EPF,< -0.253
7,NINQPTVPLFLAFLSLFRIQ,< -0.25
8,GRR,< -0.25
9,DTK,< -0.25
10,VTLTEISVPMQEYEHHSTTA,< -0.25
11,GKELRCRGGTFR,< -0.25
12,ELKPPLLGGTRPRCYHKLGL,-0.246
13,LAALL,< -0.25
14,TGAN,< -0.25
15,LFVTAF,< -0.25
16,WVPDSRI,< -0.25
17,CSVGKPWVSSGSNSGSVRGS,< -0.25
18,HWSLSVTGRSSSARRARSGA,< -0.25
19,SCIVGQASDRVCALITSMSC,< -0.25
20,RPRVTRRNCPVSLSAHTTGV,< -0.25
21,PSALKYSGAI,< -0.25
22,FRLHGGEAESNVTYVHSMSP,< -0.25

# — the supplement of paper PMC5949888
